These are yes or no findings as the source states them, for the method shown. Binding seen in cells or lysates may run through a third protein. Some entries that bind do so weakly or less than the wild type.
T1: TBX3 (endogenous, human) (human (endogenous in HEK293)) (UniProt O15119)
T1 sequence: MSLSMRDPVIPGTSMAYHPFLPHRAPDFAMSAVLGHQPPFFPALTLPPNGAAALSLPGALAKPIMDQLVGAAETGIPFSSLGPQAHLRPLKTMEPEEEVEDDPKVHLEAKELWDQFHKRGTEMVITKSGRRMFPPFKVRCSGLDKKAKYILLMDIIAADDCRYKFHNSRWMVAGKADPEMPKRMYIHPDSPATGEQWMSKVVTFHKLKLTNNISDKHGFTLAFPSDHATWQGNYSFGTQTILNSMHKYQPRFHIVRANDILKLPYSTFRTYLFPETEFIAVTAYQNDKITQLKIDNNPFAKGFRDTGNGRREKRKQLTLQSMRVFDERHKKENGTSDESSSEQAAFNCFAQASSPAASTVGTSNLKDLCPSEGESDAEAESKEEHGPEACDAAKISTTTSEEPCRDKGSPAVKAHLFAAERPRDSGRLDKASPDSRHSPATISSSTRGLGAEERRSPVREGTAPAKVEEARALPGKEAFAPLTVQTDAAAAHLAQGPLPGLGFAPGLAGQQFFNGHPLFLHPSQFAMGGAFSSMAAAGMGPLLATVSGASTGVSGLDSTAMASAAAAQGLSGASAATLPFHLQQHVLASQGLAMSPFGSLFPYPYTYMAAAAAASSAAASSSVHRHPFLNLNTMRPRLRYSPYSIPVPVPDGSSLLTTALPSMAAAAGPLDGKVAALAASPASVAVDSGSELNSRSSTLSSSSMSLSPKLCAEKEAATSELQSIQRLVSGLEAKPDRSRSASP

By UniProt entry, the sequences of proteins in these tests, tags left out.
UniProt Q501J6: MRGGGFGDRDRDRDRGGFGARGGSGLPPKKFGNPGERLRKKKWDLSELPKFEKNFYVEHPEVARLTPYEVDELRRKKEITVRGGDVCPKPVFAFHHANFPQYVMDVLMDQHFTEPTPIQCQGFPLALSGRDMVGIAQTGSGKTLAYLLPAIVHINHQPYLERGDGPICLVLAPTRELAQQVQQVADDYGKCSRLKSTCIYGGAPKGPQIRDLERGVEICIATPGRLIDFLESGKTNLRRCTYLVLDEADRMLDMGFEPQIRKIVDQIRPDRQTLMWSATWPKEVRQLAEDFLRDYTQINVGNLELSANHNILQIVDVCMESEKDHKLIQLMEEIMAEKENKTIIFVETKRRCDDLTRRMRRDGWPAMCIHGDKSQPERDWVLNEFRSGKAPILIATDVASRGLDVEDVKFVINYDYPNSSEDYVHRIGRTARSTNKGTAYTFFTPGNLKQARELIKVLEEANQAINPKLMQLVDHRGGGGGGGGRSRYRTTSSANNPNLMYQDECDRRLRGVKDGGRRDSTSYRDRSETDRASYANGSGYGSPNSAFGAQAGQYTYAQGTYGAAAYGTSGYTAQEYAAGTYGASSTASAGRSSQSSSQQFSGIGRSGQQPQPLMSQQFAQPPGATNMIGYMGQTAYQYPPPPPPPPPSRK
UniProt P29341: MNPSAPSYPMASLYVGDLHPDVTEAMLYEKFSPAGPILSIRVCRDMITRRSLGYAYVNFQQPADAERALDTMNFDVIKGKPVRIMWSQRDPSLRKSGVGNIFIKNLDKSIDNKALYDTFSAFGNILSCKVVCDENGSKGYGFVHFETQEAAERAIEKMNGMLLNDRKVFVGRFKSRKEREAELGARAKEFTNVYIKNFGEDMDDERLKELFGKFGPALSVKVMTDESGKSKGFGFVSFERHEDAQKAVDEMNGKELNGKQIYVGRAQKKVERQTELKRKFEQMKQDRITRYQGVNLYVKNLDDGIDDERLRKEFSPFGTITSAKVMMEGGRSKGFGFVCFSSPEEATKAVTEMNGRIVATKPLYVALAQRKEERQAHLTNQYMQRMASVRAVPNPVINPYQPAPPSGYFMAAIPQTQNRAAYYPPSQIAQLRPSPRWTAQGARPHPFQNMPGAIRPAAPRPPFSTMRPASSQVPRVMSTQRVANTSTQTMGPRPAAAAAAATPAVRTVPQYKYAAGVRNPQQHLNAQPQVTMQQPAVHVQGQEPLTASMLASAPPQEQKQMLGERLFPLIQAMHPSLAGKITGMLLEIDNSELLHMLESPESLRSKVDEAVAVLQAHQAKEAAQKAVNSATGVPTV
UniProt Q8VEK3: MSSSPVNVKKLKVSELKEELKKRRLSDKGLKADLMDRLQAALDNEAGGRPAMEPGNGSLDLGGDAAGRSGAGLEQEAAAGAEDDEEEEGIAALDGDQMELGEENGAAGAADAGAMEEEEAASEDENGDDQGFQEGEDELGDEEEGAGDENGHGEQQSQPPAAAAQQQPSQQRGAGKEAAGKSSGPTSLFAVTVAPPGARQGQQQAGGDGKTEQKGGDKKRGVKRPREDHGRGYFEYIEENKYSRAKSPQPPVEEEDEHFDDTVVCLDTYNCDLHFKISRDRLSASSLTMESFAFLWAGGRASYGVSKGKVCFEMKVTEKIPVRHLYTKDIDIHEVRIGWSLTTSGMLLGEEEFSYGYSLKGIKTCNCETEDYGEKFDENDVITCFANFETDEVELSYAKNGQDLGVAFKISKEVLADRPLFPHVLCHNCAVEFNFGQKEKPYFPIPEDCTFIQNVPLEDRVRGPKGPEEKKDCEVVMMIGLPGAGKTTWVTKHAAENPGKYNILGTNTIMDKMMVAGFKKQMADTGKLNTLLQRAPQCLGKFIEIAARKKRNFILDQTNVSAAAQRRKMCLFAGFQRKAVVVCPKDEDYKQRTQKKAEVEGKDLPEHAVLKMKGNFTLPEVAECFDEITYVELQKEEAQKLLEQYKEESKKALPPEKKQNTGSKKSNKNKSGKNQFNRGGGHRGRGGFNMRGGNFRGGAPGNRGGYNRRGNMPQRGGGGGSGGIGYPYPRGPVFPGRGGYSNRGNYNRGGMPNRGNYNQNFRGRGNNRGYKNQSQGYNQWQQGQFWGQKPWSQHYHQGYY
UniProt O00571: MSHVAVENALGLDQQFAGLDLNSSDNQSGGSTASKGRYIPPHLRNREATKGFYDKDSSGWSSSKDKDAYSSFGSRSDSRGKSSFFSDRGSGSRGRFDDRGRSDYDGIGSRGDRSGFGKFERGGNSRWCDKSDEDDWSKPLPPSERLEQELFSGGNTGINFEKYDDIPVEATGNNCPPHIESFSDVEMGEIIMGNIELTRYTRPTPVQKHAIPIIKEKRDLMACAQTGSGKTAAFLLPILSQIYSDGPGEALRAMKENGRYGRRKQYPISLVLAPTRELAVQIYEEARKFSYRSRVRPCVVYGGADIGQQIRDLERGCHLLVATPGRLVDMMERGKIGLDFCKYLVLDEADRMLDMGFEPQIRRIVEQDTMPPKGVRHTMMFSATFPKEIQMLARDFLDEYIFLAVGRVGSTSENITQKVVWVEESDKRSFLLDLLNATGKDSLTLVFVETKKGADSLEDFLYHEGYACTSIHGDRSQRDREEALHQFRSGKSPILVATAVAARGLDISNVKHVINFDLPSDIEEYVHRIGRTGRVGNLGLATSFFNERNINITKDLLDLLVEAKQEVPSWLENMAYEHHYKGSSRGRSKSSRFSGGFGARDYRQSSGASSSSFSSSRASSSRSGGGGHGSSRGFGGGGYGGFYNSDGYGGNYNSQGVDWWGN
UniProt P11940: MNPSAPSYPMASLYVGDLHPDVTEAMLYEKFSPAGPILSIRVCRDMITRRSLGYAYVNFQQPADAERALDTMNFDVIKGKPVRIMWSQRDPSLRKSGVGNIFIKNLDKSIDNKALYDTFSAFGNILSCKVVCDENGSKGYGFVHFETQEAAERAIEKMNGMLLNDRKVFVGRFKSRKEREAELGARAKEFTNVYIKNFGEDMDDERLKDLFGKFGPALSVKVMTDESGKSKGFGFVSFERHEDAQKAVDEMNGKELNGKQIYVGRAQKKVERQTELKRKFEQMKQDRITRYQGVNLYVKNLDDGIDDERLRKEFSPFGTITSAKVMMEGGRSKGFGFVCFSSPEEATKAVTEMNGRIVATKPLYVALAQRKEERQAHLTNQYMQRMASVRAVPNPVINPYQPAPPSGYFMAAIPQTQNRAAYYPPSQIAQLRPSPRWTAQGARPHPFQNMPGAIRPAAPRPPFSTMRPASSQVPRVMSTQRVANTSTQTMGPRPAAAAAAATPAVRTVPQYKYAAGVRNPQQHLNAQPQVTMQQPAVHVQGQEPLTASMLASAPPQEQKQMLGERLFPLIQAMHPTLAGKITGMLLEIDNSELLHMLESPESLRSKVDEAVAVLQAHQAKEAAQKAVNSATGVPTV
UniProt Q92841: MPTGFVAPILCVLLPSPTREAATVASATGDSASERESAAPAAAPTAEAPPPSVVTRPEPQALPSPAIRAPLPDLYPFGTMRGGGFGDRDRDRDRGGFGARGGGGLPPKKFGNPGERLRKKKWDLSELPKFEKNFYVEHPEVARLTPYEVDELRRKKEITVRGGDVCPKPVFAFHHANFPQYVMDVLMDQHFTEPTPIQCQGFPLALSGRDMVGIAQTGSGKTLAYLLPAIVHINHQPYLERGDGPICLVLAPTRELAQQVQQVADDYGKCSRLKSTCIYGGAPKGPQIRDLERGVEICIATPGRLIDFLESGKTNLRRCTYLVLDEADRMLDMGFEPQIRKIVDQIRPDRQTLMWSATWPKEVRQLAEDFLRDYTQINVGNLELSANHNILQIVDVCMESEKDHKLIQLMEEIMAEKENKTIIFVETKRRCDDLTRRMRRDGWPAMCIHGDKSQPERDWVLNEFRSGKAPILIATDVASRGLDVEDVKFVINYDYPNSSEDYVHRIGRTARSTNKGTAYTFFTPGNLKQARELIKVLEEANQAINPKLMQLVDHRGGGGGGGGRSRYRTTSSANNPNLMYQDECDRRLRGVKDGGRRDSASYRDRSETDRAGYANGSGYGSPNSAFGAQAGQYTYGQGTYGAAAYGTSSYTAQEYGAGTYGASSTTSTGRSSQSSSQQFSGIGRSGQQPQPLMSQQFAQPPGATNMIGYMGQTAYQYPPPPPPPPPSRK

T2: Tbx3 (wild type, transfected) (mouse) (UniProt P70324)
T2 sequence: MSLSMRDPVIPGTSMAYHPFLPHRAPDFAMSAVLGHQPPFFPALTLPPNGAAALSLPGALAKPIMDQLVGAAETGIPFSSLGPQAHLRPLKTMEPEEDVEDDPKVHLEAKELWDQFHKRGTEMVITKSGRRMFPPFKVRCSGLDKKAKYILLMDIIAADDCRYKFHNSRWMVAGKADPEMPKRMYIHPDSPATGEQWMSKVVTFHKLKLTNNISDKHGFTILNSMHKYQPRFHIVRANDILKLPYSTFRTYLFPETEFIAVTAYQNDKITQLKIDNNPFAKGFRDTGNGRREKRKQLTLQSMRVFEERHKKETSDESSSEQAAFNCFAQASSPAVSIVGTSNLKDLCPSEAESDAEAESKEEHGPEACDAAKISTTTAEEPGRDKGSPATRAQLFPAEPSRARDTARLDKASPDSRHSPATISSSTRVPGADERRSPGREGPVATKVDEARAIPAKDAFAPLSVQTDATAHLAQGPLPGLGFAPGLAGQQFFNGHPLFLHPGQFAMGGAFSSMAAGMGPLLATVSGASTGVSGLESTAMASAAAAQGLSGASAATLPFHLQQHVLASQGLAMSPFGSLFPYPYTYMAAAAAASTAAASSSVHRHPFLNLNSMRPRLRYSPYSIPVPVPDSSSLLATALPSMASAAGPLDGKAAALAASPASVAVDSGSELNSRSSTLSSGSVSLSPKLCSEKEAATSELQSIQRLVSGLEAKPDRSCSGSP


What was measured:
[1] = biological target: T1, TBX3 (endogenous, human) (human (endogenous in HEK293)); assay: co-IP; endogenous proteins, Dignam lysates of HEK293 cells; IP and immunoblot with specific antibodies
[2] = biological target: T2, Tbx3 (wild type, transfected) (mouse); assay: co-IP; HEK293 cells with stable retroviral shRNA knockdown of endogenous TBX3, transfected with wild type or mutant Tbx3; Tbx3 IP, immunoblot for endogenous DDX3, hnRNP C, DDX17
[3] = biological target: T1, TBX3 (endogenous, human) (human (endogenous in HEK293)); assay: co-IP; endogenous proteins, HEK293 lysates treated with RNAse A before IP
[4] = biological target: Ddx17 (mouse) (mouse (endogenous in e10.5 embryos)) (UniProt Q501J6); assay: co-IP; endogenous proteins, Dignam lysates of e10.5 mouse embryos; IP and immunoblot with specific antibodies
[5] = biological target: Pabp1 (mouse) (mouse (endogenous in e10.5 embryos)) (UniProt P29341); assay: as above
[6] = biological target: hnrnp k (mouse) (mouse (endogenous in e10.5 embryos)) (UniProt P61979); assay: as above
[7] = biological target: hnrnp u (mouse) (mouse (endogenous in e10.5 embryos)) (UniProt Q8VEK3); assay: as above

Molecule | binding [1] | binding [2] | binding [3] | binding [4] | binding [5] | binding [6] | binding [7]
ATP-dependent RNA helicase DDX3X (from UniProt O00571 1-662) | binds | binds | binds | – | – | – | –
Tbx3 (endogenous, mouse) (protein, UniProt P70324-2 1-721) MSLSMRDPVIPGTSMAYHPFLPHRAPDFAMSAVLGHQPPFFPALTLPPNGAAALSLPGALAKPIMDQLVGAAETGIPFSSLGPQAHLRPLKTMEPEEDVEDDPKVHLEAKELWDQFHKRGTEMVITKSGRRMFPPFKVRCSGLDKKAKYILLMDIIAADDCRYKFHNSRWMVAGKADPEMPKRMYIHPDSPATGEQWMSKVVTFHKLKLTNNISDKHGFTILNSMHKYQPRFHIVRANDILKLPYSTFRTYLFPETEFIAVTAYQNDKITQLKIDNNPFAKGFRDTGNGRREKRKQLTLQSMRVFEERHKKETSDESSSEQAAFNCFAQASSPAVSIVGTSNLKDLCPSEAESDAEAESKEEHGPEACDAAKISTTTAEEPGRDKGSPATRAQLFPAEPSRARDTARLDKASPDSRHSPATISSSTRVPGADERRSPGREGPVATKVDEARAIPAKDAFAPLSVQTDATAHLAQGPLPGLGFAPGLAGQQFFNGHPLFLHPGQFAMGGAFSSMAAGMGPLLATVSGASTGVSGLESTAMASAAAAQGLSGASAATLPFHLQQHVLASQGLAMSPFGSLFPYPYTYMAAAAAASTAAASSSVHRHPFLNLNSMRPRLRYSPYSIPVPVPDSSSLLATALPSMASAAGPLDGKAAALAASPASVAVDSGSELNSRSSTLSSGSVSLSPKLCSEKEAATSELQSIQRLVSGLEAKPDRSCSGSP | – | – | – | binds | binds | binds | binds

Results, then the molecule that gave them:

binding [1] | binding [2] | binding [3] | binding [4] | binding [5] | binding [6] | binding [7] | Molecule
binds | – | binds | – | – | – | – | Poly(A) binding protein, cytoplasmic 1 (from UniProt P11940 1-636)
binds | binds | – | – | – | – | – | Probable ATP-dependent RNA helicase DDX17 (from UniProt Q92841 1-729)

Reference: paper PMC3967948
